In the supplement of paper PMC8728848:
The list shows a part of the results.

Experiments:
Assay in all cases: glycan array binding signal (z-score within array); higher = stronger binding
Settings in all cases: glycan notation: IUPAC condensed, linker removed
[1] = target: Fuc(a1-2)[Gal(a1-3)]Gal(b1-4)GlcNAc(b1-2)Man(a1-3)[Fuc(a1-2)[Gal(a1-3)]Gal(b1-4)GlcNAc(b1-2)Man(a1-6)]Man(b1-4)GlcNAc(b1-4)GlcNAc
Method in brief: (§1)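 Glycan array data were curated from 3228 arrays in the Consortium for Functional Glycomics database and kept only where the protein sequence was available. Glycan names were converted to IUPAC-condensed notation, and columns mapping to the same glycan were averaged. The binding signal is a within-array Z-score, averaged across arrays of the same protein sequence at different concentrations or buffers and across linkers. Negative Z-scores can be read as non-binding.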

[2] = target: Fuc(a1-2)[Gal(a1-3)]Gal(b1-4)GlcNAc(b1-2)Man(a1-3)[Fuc(a1-2)[Gal(a1-3)]Gal(b1-4)GlcNAc(b1-2)Man(a1-6)]Man(b1-4)GlcNAc(b1-4)[Fuc(a1-6)]GlcNAc
Method in brief: as §1

[3] = target: Fuc(a1-2)[Gal(a1-3)]Gal(b1-4)GlcNAc(b1-3)GalNAc
Method in brief: as §1

[4] = target: Fuc(a1-2)[Gal(a1-3)]Gal(b1-4)GlcNAc(b1-3)[Fuc(a1-2)[Gal(a1-3)]Gal(b1-4)GlcNAc(b1-6)]GalNAc
Method in brief: as §1

[5] = target: Fuc(a1-2)[Gal(a1-3)]Gal(b1-4)GlcNAc(b1-6)GalNAc
Method in brief: as §1

[6] = target: Fuc(a1-2)[Gal(a1-3)]Gal(b1-4)[Fuc(a1-3)]Glc
Method in brief: as §1

[7] = target: Fuc(a1-2)[Gal(a1-3)]Gal(b1-4)[Fuc(a1-3)]GlcNAc
Method in brief: as §1

[8] = target: Fuc(a1-2)[Gal(a1-3)]Gal(b1-4)[Fuc(a1-3)]GlcNAc(b1-3)GalNAc
Method in brief: as §1

[9] = target: Fuc(a1-2)[Gal(a1-4)]Gal(b1-4)GlcNAc
Method in brief: as §1

[10] = target: Fuc(a1-2)[GalNAc(a1-3)]Gal
Method in brief: as §1

[11] = target: Fuc(a1-2)[GalNAc(a1-3)]Gal(b1-3)GalNAc(a1-3)[Fuc(a1-2)]Gal(b1-4)GlcNAc
Method in brief: as §1

[12] = target: Fuc(a1-2)[GalNAc(a1-3)]Gal(b1-3)GalNAc(b1-3)Gal(a1-4)Gal(b1-4)Glc
Method in brief: as §1

[13] = target: Fuc(a1-2)[GalNAc(a1-3)]Gal(b1-3)GlcNAc
Method in brief: as §1

[14] = target: Fuc(a1-2)[GalNAc(a1-3)]Gal(b1-3)GlcNAc(b1-2)Man(a1-3)[Fuc(a1-2)[GalNAc(a1-3)]Gal(b1-3)GlcNAc(b1-2)Man(a1-6)]Man(b1-4)GlcNAc(b1-4)GlcNAc
Method in brief: as §1

[15] = target: Fuc(a1-2)[GalNAc(a1-3)]Gal(b1-3)GlcNAc(b1-2)Man(a1-3)[Fuc(a1-2)[GalNAc(a1-3)]Gal(b1-3)GlcNAc(b1-2)Man(a1-6)]Man(b1-4)GlcNAc(b1-4)[Fuc(a1-6)]GlcNAc
Method in brief: as §1

[16] = target: Fuc(a1-2)[GalNAc(a1-3)]Gal(b1-3)GlcNAc(b1-3)GalNAc
Method in brief: as §1

[17] = target: Fuc(a1-2)[GalNAc(a1-3)]Gal(b1-3)GlcNAc(b1-6)GalNAc
Method in brief: as §1

[18] = target: Fuc(a1-2)[GalNAc(a1-3)]Gal(b1-4)Glc
Method in brief: as §1

[19] = target: Fuc(a1-2)[GalNAc(a1-3)]Gal(b1-4)GlcNAc
Method in brief: as §1

[20] = target: Fuc(a1-2)[GalNAc(a1-3)]Gal(b1-4)GlcNAc(b1-2)Man
Method in brief: as §1

[21] = target: Fuc(a1-2)[GalNAc(a1-3)]Gal(b1-4)GlcNAc(b1-2)Man(a1-3)[Fuc(a1-2)[GalNAc(a1-3)]Gal(b1-4)GlcNAc(b1-2)Man(a1-6)]Man(b1-4)GlcNAc(b1-4)GlcNAc
Method in brief: as §1

[22] = target: Fuc(a1-2)[GalNAc(a1-3)]Gal(b1-4)GlcNAc(b1-2)Man(a1-3)[Fuc(a1-2)[GalNAc(a1-3)]Gal(b1-4)GlcNAc(b1-2)Man(a1-6)]Man(b1-4)GlcNAc(b1-4)[Fuc(a1-6)]GlcNAc
Method in brief: as §1

[23] = target: Fuc(a1-2)[GalNAc(a1-3)]Gal(b1-4)GlcNAc(b1-3)Gal(b1-4)GlcNAc
Method in brief: as §1

[24] = target: Fuc(a1-2)[GalNAc(a1-3)]Gal(b1-4)GlcNAc(b1-3)Gal(b1-4)GlcNAc(b1-3)Gal(b1-4)GlcNAc
Method in brief: as §1

[25] = target: Fuc(a1-2)[GalNAc(a1-3)]Gal(b1-4)GlcNAc(b1-3)GalNAc
Method in brief: as §1

[26] = target: Fuc(a1-2)[GalNAc(a1-3)]Gal(b1-4)GlcNAc(b1-3)[Fuc(a1-2)[GalNAc(a1-3)]Gal(b1-4)GlcNAc(b1-6)]GalNAc
Method in brief: as §1

[27] = target: Fuc(a1-2)[GalNAc(a1-3)]Gal(b1-4)GlcNAc(b1-6)GalNAc
Method in brief: as §1

[28] = target: Fuc(a1-2)[GalNAc(a1-3)]Gal(b1-4)[Fuc(a1-3)]GlcNAc
Method in brief: as §1

[29] = target: Fuc(a1-2)[GalNAc(a1-3)]Gal(b1-4)[Fuc(a1-3)]GlcNAc(b1-3)GalNAc
Method in brief: as §1

[30] = target: Fuc(a1-2)[GalNAc(a1-4)]Gal(b1-4)GlcNAc
Method in brief: as §1

B1: R2-fiber (Pseudomonas aeruginosa), Q9S576 (protein)
chain: HHHHHHKVAKDLVVSLAYQVRTEDGVLVDESPVSAPLDYLHGHGSLISGLETALEGHEVGDKFDVAVGANDAYGQYDENLVQRVPKDVFMGVDELQVGMRFLAETDQGPVPVEITAVEDDHVVVDGNHMLAGQNLKFNVEVVAIREATEEELAHGHVHGAHDHHHDHDHDGCCGGHGHDHGHEHGGEGCCGGKGNGGCGCHENLYFQGVTAGMALAATDIPGLDASKLVSGVLAEQRLPVFARGLATAVSNSSDPNTATVPLMLTNHANGPVAGRYFYIQSMFYPDQNGNASQIATSYNATSEMYVRVSYAANPSIREWLPWQRCDIGGSFTKEADGELPGGVNLDSMVTSGWWSQSFTAQAASGANYPIVRAGLLHVYAASSNFIYQTYQAYDGESFYFRCRHSNTWFPWRRMWHGGDFNPSDYLLKSGFYWNALPGKPATFPPSAHNHDVGQLTSGILPLARGGVGSNTAAGARSTIGAGVPATASLGASGWWRDNDTGLIRQWGQVTCPADADASITFPIPFPTLCLGGYANQTSAFHPGTDASTGFRGATTTTAVIRNGYFAQAVLSWEAFGR
glycan array binding signal (z-score) [1]: 0.927 | glycan array binding signal (z-score) [2]: -1.12 | glycan array binding signal (z-score) [3]: -0.641 | glycan array binding signal (z-score) [4]: 2.68 | glycan array binding signal (z-score) [5]: 1.5 | glycan array binding signal (z-score) [6]: -0.426 | glycan array binding signal (z-score) [7]: 0.442 | glycan array binding signal (z-score) [8]: 0.175 | glycan array binding signal (z-score) [9]: -0.322 | glycan array binding signal (z-score) [10]: -0.494 | glycan array binding signal (z-score) [11]: -0.408 | glycan array binding signal (z-score) [12]: -0.479 | glycan array binding signal (z-score) [13]: -0.139 | glycan array binding signal (z-score) [14]: 0.098 | glycan array binding signal (z-score) [15]: -0.288 | glycan array binding signal (z-score) [16]: -0.17 | glycan array binding signal (z-score) [17]: 0.153 | glycan array binding signal (z-score) [18]: -0.903 | glycan array binding signal (z-score) [19]: -0.075 | glycan array binding signal (z-score) [20]: -0.942 | glycan array binding signal (z-score) [21]: -0.257 | glycan array binding signal (z-score) [22]: -0.483 | glycan array binding signal (z-score) [23]: 0.935 | glycan array binding signal (z-score) [24]: 0.713 | glycan array binding signal (z-score) [25]: -0.415 | glycan array binding signal (z-score) [26]: -0.341 | glycan array binding signal (z-score) [27]: -0.477 | glycan array binding signal (z-score) [28]: -0.636 | glycan array binding signal (z-score) [29]: 3.46 | glycan array binding signal (z-score) [30]: -0.49
